Measurements reported in publication PMC12040169 (PLOS Biology, 2025).
The other results are listed elsewhere or left out.

Each compound was assayed on T1, CTL2-GFP (C. trachomatis L2/434/Bu, GFP-expressing). Conditions: bulk GFP, single well; 28.5 h, 10 µM; inhibitor.
T1 construct: L2/434/Bu, GFP-expressing
Design: species or system HeLa; Intracellular C. trachomatis growth in HeLa cells, bulk GFP fluorescence relative to DMSO

SMILES	% of control remaining [%]
CC(=O)Nc1cccc(NS(=O)(=O)c2ccc(N3CCNCC3)c3ccccc23)c1 [CBK028702C]	122.474
FC(F)(F)c1cccc(-n2cc(-c3cccnc3)nn2)c1 [CBK113053]	112.575
O=C(CN1CCCCC1)Nc1ccc(NC(=O)CN2CCCCC2)cc1 [CBK265421]	106.79
Nc1ccccc1-c1ccccc1NC(=O)C(=O)O [CBK266824]	77.3268
COC(=O)[C@H]1CN(C(=O)CN2CCCC2=O)C[C@@H]1c1ccc(F)cc1 [CBK283507]	127.811
O=C(CCCn1c(=O)[nH]c2ccsc2c1=O)Nc1ccc(F)cc1 [CBK287769]	99.718
O=C(O)c1[nH]c2ccccc2c1C(c1c(F)cccc1Cl)c1c(C(=O)O)[nH]c2ccccc12 [CBK267797]	132.307
O=[N+]([O-])c1cccc(-c2nc(-c3ccccc3)c(-c3ccc4oc5ccc(-c6[nH]c(-c7cccc([N+](=O)[O-])c7)nc6-c6ccccc6)cc5c4c3)[nH]2)c1 [CBK261433]	116.462
CCNc1nc(-c2ccc(S(C)(=O)=O)cc2)cn2ccnc12 [CBK066452]	165.172
CCCn1cnc2cc(NC(=O)C3CCN(S(=O)(=O)c4ccc(F)cc4)C3)ccc21 (stereo not shown) [CBK285704]	134.31
Cc1ccc(-n2ncc3c(=O)n(Cc4ccccc4C)cnc32)c(C)c1 [CBK287695]	116.26
CC(C)(C)OC(=O)N1CCC[C@]2(CCC(=O)N2)[C@H]1c1ccc(F)cc1 [CBK283462]	146.97
CCc1nc2ccc(C(=O)N(C)Cc3ccco3)cn2c1N(C)C(=O)c1ccncc1 [CBK145479]	114.847
CSc1nnc2c(n1)OC(/C=C/c1ccccc1)N(C(C)=O)c1ccccc1-2 (stereo not shown) [CBK264453]	134.784
Cc1ccc(Oc2ccc(NC(=O)Cn3cnnc3C#N)cc2)cc1 [CBK295612]	115.762
CC(=O)c1cccc(NC(=O)c2cc(S(=O)(=O)N(C)C)ccc2Cl)c1 [CBK265732]	72.9463
Cc1cc(CNC(=O)c2cc3ccc(Cl)cc3[nH]2)[nH]n1 [CBK281391]	134.592
O=S(=O)(NCCc1cccs1)c1cc2c(N3CCNCC3)nccc2s1 [CBK041299C]	104.188
COc1nccnc1OC1CCN(CCc2ccccc2)CC1 [CBK084258]	113.701
O=S(=O)(NCCc1c[nH]c2ccccc12)c1cccc2nsnc12 [CBK057456]	127.978
COc1ccc(OC)c(S(=O)(=O)N2CCN(C(=O)c3cc(-c4ccncc4)nc4c(C)cc(C)cc34)CC2)c1 [CBK267778]	135.413
COc1ccc(C2CC(c3ccc(NS(C)(=O)=O)cc3)=NN2C(=O)CCCC(=O)O)cc1 (stereo not shown) [CBK297780]	117.703
CC1CCc2n[nH]c(C(=O)NCCCc3ccccn3)c2C1 (stereo not shown) [CBK283194]	148.345
COc1ccc(-c2cnc(NCC3CC3)c(C(=O)NCCc3c[nH]c4ccccc34)c2)cc1 [CBK076349]	106.662
CSc1cccc(NC(=O)c2sc3nc(C)cc(C)c3c2N)c1 [CBK115349]	132.263
COc1cccc(-n2ncc(-c3cccnc3)n2)c1 [CBK112813]	113.643

3 entries already listed, sorted by number of heavy atoms, rising.
SMILES	% of control remaining [%]
COc1cccc(-n2ncc(-c3cccnc3)n2)c1 [CBK112813]	113.643
CC(=O)Nc1cccc(NS(=O)(=O)c2ccc(N3CCNCC3)c3ccccc23)c1 [CBK028702C]	122.474
O=C(O)c1[nH]c2ccccc2c1C(c1c(F)cccc1Cl)c1c(C(=O)O)[nH]c2ccccc12 [CBK267797]	132.307

Next part:

SMILES	% of control remaining [%]
COc1ccccc1OCC(=O)Nc1cnc(-c2cccc(C)c2)c(-c2cccnc2)n1 [CBK037112]	190.878
O=C(Cc1n[nH]c(=O)[nH]c1=O)N/N=C/c1ccc(C(=O)O)cc1 [CBK263525]	118.445
CC(O)Cc1nnc(SCC(=O)c2ccc([N+](=O)[O-])cc2)n1-c1ccccc1 (stereo not shown) [CBK267389]	145.996
CC(C)CCC(=O)Nc1ccc(N2CCN(C(=O)c3ccccc3C(F)(F)F)CC2)nn1 [CBK138629]	81.8471
CC(=O)Nc1cccc(NC(=O)c2ccc(CN3CCc4ccccc4C3)cc2)c1 [CBK269534]	133.318
COc1cccc(C(NC(=O)Cc2ccc(-n3nnnc3C)cc2)c2ccccc2)c1 (stereo not shown) [CBK285605]	124.706
O=C(CCCn1ccnc1)Nc1ccc(OC2CCCC2)cc1 [CBK281986]	127.419
C/C(=N\NC(=O)c1nc(-c2ccccc2)cc(-c2ccccc2)n1)c1ccc(F)cc1 [CBK262826]	105.764
Cc1ncccc1-c1cc2cccnc2n1CCC(=O)NC1CC1 [CBK282690]	103.563
CC(C)(C)c1cc(C(=O)N/N=C/c2ccc(O)c([N+](=O)[O-])c2)[nH]n1 [CBK263844]	105.502
O=C(Cn1c2ccccc2c(=O)c2ccccc21)Nc1ccc(-n2cncn2)nc1 [CBK295350]	115.588
CCOc1ccsc1C(=O)Nc1ccccc1N1CCCNCC1 [CBK036354T]	115.023
O=C(O)c1ccc(N2C(=O)c3ccc(Oc4ccc(S(=O)(=O)c5ccc(C(=O)O)cc5)cc4)cc3C2=O)cc1 [CBK263603]	100
Cc1cc(C)nc(Nc2n[nH]c(Cc3ccccc3)n2)n1 [CBK267023]	186.464
CC(C)(C)c1ccc(S(=O)(=O)N2CCSC2)cc1 [CBK095672]	107.758
COc1ccc(N2C(=O)c3ccc(C(=O)OCC(=O)c4ccc(-c5ccccc5)cc4)cc3C2=O)cc1 [CBK263532]	100
Cc1nn(C)c(C)c1CN(C(=O)C(C)Oc1ccccc1F)C1CC1 (stereo not shown) [CBK281480]	104.696
CCN(C)C(=O)c1cn2cc(-c3cc(C)oc3C)n(C)c(=O)c2n1 [CBK307494]	145.574
O=C(N/N=C/c1ccc(O)c(I)c1)c1ccncc1 [CBK262144]	100
NC(=O)c1c(NC(=O)COc2ccc3ccccc3c2)sc2c1CCCCC2 [CBK265380]	119.478
COc1ccc(CN2CCCN(c3ccnc(OCC4COc5ccccc5O4)n3)CC2)cc1 (stereo not shown) [CBK083234T]	100.084
O=C(COc1ccc(S(=O)(=O)N2CCCC2)cc1Cl)NCc1ccccn1 [CBK268412]	139.245
CCC(NS(=O)(=O)c1cnc2c(c1)c(C)nn2C)C(O)C(F)(F)F (stereo not shown) [CBK306264]	135.367
CC(=O)N1Cc2ccccc2OC2(CCN(C(=O)C3CC3)CC2)C1 [CBK285037]	128.045
CCC(Sc1ncccc1C(=O)O)C(=O)O (stereo not shown) [CBK263216]	121.48
CCCCCCn1nc(C(=O)NCC(=O)O)c2ccccc2c1=O [CBK297491]	95.5942

SMILES	% of control remaining [%]
COc1ccc(CCC(=O)N2CCCC(c3nccnc3-c3cccc(C)c3)C2)cc1 (stereo not shown) [CBK286510]	116.146
COc1ccc([N+](=O)[O-])cc1-c1ccc(/C=N/NC(=O)Cn2nnnc2N)o1 [CBK262505]	100
CC(C)c1ccc(S(=O)(=O)NC(CC(=O)O)c2ccccc2)cc1 (stereo not shown) [CBK266217]	142.845
CN1CCN(c2nc(NS(=O)(=O)c3ccc(OC(F)(F)F)cc3)cc3ccccc23)CC1 [CBK002978C]	123.936
COc1cc(-c2cncc(N3CCCC3CO)n2)cc(OC)c1OC (stereo not shown) [CBK065389]	184.407
CC(C)CCc1ccc(C#N)c(=O)[nH]1 [CBK016227]	142.157
COc1cccc(-c2cnc(N)c(N3CCN(CCN(C)C)CC3)n2)c1 [CBK063561]	151.8
CCOC(=O)N1C(=O)c2ccccc2NC1(C(F)(F)F)C(F)(F)F [CBK025725]	130.067
CCN1CCCC1CNC(=O)c1cc(Br)cnc1N(C)C(C)=O (stereo not shown) [CBK076524]	167.884
Nc1nnc(SCc2nc3ccccc3n2Cc2ccccc2)s1 [CBK264649]	110.529
CC(C)Oc1ccc(C(=O)N2CCC(COc3ccc(-c4ccc(S(C)(=O)=O)cc4)cn3)CC2)nc1 [CBK161989]	68.5087
O=C(CCOc1ccccc1)Nc1cc(N2CCNCC2)ncn1 [CBK004225T]	84.5903
NC(=O)C1CCN([C@H]2[C@@H]3OC[C@@H](O3)[C@@H](NCc3ccc(F)cc3)[C@@H]2O)CC1 [CBK288830]	124.349
COC(=O)n1c(=O)oc2ccc(Cl)cc21 [CBK026774]	112.162
CCN(CC)CCn1c2ccccc2c2nc3cc(C(=O)O)ccc3nc21 [CBK297496]	105.485
CC1(C)O[C@@H]2O[C@@H](C(O)CNC(=O)c3ccccc3)[C@@H](O)[C@@H]2O1 (stereo partly shown) [CBK008736]	100
Cc1nn(Cc2cccc(C(=O)NCc3ccccn3)c2)c(C)c1Cl [CBK265755]	148.722
CSCCCNC(=O)N(CCC#N)C1CCCCC1 [CBK156348]	94.2447
Cc1c2c(nn1C)CSc1ccccc1C2=O [CBK006517]	130.836
O=C(Cn1cc(C(=O)NCc2ccc(F)cc2)ccc1=O)NC1(c2ccccc2)CCCC1 [CBK286081]	102.348
Nc1ncc(-c2cccc3ccccc23)nc1NCc1ccccc1 [CBK063565]	48.2938
O=C(Nc1ccc(Cl)cc1)N1CCCCC1CO (stereo not shown) [CBK156179]	102.945
Cc1cc(C)nc(NC2=NCCN2C(=S)Nc2ccccc2)n1 [CBK266481]	138.703
Cc1ccc(Sc2ncccc2C(=O)Nc2ccnn2Cc2cccnc2)cc1C [CBK296980]	78.9843

Pulled by structure from above:
SMILES	% of control remaining [%]
Nc1ccccc1-c1ccccc1NC(=O)C(=O)O [CBK266824]	77.3268
CC(=O)Nc1cccc(NS(=O)(=O)c2ccc(N3CCNCC3)c3ccccc23)c1 [CBK028702C]	122.474
FC(F)(F)c1cccc(-n2cc(-c3cccnc3)nn2)c1 [CBK113053]	112.575
